Reference: patent publication US4908364A, “Substituted 3-phenyl-7H-thiazol[3,2-b][1,2,4]-triazin-7-ones” (Hoechst Aktiengesellschaft, priority 1987, dated 1990)

Key:
[1] = Acute gastral ulcerogenity; parameters: species or system male Sprague-Dawley rats; conditions: rat, in vivo, po
Description: The investigation took place in each case on 10 male Sprague-Dawley rats in which the gastric mucous membrane had been sensitized by hunger stress. The body weight of the animals was between 200 and 300 g. While allowing free access to the drinking water, the feed was withdrawn 48 hours before administration of the test preparations until sacrifice of the animals. The rats were sacrificed 24 hours after oral administration of the substance, and the stomachs were removed, cleaned under running water and inspected for mucous membrane lesions. All macroscopically visible lesions were regarded as ulcers. The number of animals having ulcers was determined for each dose, and the UD50 values, i.e. the doses at which lesions were caused in 50% of the animals, were calculated from this number by the method of Litchfield and Wilcoxon (J. Pharmacol. Exp. Ther. 96 (1949) p. 99).

in vivo = conditions: mouse, ip, LD50 (mice i.p.) / ED50 (adjuvant arthritis), read-out: therapeutic range, quotient LD50/ED50
Description: The LD50 values were determined by a standard method from the mortality occurring within 7 days in NMRI (Naval Medical Research Institute) mice (6 animals per dose) after a single intraperitoneal (i.p.) administration.

COc1ccc2cc(C(C)C(=O)O)ccc2c1 (centres unmarked) [Naproxen, 2-(6-methoxy-2-naphthyl)-propionic acid, reference compound]
selectivity ratio [1]: 1.3
selectivity ratio (in vivo): 28.6
